In article doi:10.1101/2025.05.24.655882 one finds binding data, which are given here for three molecules.

Protein sequences, listed by entry. Tags and fused reporters are not part of them.
UniProt P53855, whole entry: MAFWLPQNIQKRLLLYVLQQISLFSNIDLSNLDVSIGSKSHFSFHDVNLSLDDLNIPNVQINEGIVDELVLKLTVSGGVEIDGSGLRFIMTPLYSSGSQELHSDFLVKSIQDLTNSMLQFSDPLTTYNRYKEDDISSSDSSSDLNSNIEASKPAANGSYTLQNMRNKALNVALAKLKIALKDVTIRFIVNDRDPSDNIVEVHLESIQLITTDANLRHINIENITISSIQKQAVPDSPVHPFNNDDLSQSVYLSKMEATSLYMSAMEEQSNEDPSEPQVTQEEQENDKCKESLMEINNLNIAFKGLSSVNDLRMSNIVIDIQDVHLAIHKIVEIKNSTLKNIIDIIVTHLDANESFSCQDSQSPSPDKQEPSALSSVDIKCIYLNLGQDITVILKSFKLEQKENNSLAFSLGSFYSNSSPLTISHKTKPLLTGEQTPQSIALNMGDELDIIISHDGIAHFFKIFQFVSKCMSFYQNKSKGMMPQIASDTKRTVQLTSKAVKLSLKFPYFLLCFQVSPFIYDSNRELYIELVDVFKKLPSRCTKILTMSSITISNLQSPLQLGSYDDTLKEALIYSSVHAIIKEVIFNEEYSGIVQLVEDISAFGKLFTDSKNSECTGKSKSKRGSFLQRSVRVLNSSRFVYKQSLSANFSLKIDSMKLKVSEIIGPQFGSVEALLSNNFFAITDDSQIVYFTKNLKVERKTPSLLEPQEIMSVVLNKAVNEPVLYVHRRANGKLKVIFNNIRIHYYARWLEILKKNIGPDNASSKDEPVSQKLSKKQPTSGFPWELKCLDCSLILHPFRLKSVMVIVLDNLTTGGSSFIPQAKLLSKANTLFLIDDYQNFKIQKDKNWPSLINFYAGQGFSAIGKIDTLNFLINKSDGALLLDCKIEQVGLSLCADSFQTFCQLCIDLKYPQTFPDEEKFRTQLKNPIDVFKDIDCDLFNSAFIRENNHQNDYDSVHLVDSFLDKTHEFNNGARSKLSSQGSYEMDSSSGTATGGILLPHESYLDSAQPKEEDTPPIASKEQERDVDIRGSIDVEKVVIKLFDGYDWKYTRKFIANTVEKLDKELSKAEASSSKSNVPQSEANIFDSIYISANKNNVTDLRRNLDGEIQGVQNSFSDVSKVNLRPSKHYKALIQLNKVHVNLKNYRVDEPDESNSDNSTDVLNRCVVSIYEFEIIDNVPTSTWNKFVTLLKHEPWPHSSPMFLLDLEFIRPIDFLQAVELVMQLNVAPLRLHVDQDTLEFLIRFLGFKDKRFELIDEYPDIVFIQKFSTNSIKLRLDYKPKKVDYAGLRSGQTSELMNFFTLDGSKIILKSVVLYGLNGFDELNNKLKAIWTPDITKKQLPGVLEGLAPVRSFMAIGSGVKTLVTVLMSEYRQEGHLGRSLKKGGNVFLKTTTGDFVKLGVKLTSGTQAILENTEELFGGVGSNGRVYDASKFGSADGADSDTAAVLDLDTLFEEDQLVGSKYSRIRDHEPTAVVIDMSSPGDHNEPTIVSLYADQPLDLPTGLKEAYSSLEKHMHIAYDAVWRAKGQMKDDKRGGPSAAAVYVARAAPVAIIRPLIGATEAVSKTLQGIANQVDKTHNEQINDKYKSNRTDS

For experiment [1], the target named is T1, Atg18–3xFLAG (wild type) (S. cerevisiae) (UniProt P43601).
T1 sequence: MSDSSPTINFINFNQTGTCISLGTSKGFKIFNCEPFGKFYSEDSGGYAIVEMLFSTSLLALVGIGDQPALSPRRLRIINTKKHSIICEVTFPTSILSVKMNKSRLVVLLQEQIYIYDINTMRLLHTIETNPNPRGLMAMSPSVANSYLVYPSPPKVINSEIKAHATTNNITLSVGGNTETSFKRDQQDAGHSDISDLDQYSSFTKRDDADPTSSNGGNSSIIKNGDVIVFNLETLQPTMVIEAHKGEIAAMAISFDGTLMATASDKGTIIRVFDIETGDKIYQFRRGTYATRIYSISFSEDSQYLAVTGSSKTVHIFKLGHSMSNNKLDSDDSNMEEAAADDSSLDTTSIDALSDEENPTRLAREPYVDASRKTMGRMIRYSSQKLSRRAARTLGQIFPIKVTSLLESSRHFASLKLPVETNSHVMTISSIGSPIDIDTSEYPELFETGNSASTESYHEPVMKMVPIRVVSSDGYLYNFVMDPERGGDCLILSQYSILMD
Kind of experiment: co-IP.

For experiment [2], the target named is Atg2–HA–EGFP (wild type) (S. cerevisiae) (UniProt P53855). Kind of experiment: co-IP.

Results are given in words; binding and its absence hold for the method and conditions named. In cells and extracts the contact can be indirect. Some results given as binding are weak or reduced against the parent protein; the word gives no strength. Where a sequence is shown, tags or fusion partners need not be part of it.

For “Atg2 (co-precipitated with Atg18–3xFLAG) (from UniProt P53855 1-1592)”, the binding result in experiment [1] is recorded as “binds”.

B1: Atg9 (protein, UniProt Q12142 1-997)
chain: MERDEYQLPNSHGKNTFLSRIFGLQSDEVNPSLNSQEMSNFPLPDIERGSSLLHSTNDSREDVDENDLRVPESDQGTSTEEEDEVDEEQVQAYAPQISDGLDGDHQLNSVTSKENVLETEKSNLERLVEGSTDDSVPKVGQLSSEEEEDNEFINNDGFDDDTPLFQKSKIHEFSSKKSNTIEDGKRPLFFRHILQNNRPQRDTQKLFTSSNAIHHDKDKSANNGPRNINGNQKHGTKYFGSATQPRFTGSPLNNTNRFTKLFPLRKPNLLSNISVLNNTPEDRINTLSVKERALWKWANVENLDIFLQDVYNYYLGNGFYCIILEKILNICTLLFVVFVSTYMGHCVDYSKLPTSHRVSDIIIDKCYSNSITGFTKFFLWMFYFFVILKIVQLYFDVQKLSELQNFYKYLLNISDDELQTLPWQNVIQQLMYLKDQNAMTANVVEVKAKNRIDAHDVANRIMRRENYLIALYNSDILNLSLPIPLFRTNVLTKTLEWNINLCVMGFVFNESGFIKQSILKPSQREFTREELQKRFMLAGFLNIILAPFLVTYFVLLYFFRYFNEYKTSPGSIGARQYTPIAEWKFREYNELYHIFKKRISLSTTLANKYVDQFPKEKTNLFLKFVSFICGSFVAILAFLTVFDPENFLNFEITSDRSVIFYITILGAIWSVSRNTITQEYHVFDPEETLKELYEYTHYLPKEWEGRYHKEEIKLEFCKLYNLRIVILLRELTSLMITPFVLWFSLPSSAGRIVDFFRENSEYVDGLGYVCKYAMFNMKNIDGEDTHSMDEDSLTKKIAVNGSHTLNSKRRSKFTAEDHSDKDLANNKMLQSYVYFMDDYSNSENLTGKYQLPAKKGYPNNEGDSFLNNKYSWRKQFQPGQKPELFRIGKHALGPGHNISPAIYSTRNPGKNWDNNNNGDDIKNGTNNATAKNDDNNGNNDHEYVLTESFLDSGAFPNHDVIDHNKMLNSNYNGNGILNKGGVLGLVKEYYKKSDVGR
In the case of B1, in experiment [2], the binding result was “binds”.

B2: Atg18 (co-precipitated with Atg2–HA–EGFP) (protein, UniProt P43601 1-500)
chain: MSDSSPTINFINFNQTGTCISLGTSKGFKIFNCEPFGKFYSEDSGGYAIVEMLFSTSLLALVGIGDQPALSPRRLRIINTKKHSIICEVTFPTSILSVKMNKSRLVVLLQEQIYIYDINTMRLLHTIETNPNPRGLMAMSPSVANSYLVYPSPPKVINSEIKAHATTNNITLSVGGNTETSFKRDQQDAGHSDISDLDQYSSFTKRDDADPTSSNGGNSSIIKNGDVIVFNLETLQPTMVIEAHKGEIAAMAISFDGTLMATASDKGTIIRVFDIETGDKIYQFRRGTYATRIYSISFSEDSQYLAVTGSSKTVHIFKLGHSMSNNKLDSDDSNMEEAAADDSSLDTTSIDALSDEENPTRLAREPYVDASRKTMGRMIRYSSQKLSRRAARTLGQIFPIKVTSLLESSRHFASLKLPVETNSHVMTISSIGSPIDIDTSEYPELFETGNSASTESYHEPVMKMVPIRVVSSDGYLYNFVMDPERGGDCLILSQYSILMD
With B2, the binding entry in experiment [2] was “binds”.
